The record followed here is PubChem BioAssay AID328 (DTP/NCI, 2004).

The assay deals with BDF1 mice, P388 leukemia ip, median survival T/C. The assay can be described thus: NCI In Vivo Anticancer Drug Screen. Data for tumor model P388 Leukemia (intraperitoneal) in B6D2F1 (BDF1) mice. The settings on record: T/C endpoint: median survival time, higher T/C = longer survival. The essentials: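 Transplantable tumour in mice; compound vs vehicle dosing; survival scored; ratio of treated to control reported.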

[1] abbreviates: dose: 100.0 mg/kg/injection, schedule: Q01DX009 (ip), vehicle: saline with Tween-80.
Where [2] appears, read: dose: 200.0 mg/kg/injection, schedule: Q01DX009 (ip), vehicle: Klucel (hydroxypropylcellulose) (HPC).
Setting [3] is: dose: 400.0 mg/kg/injection, schedule: Q01DX009 (ip), vehicle: saline with Tween-80.
[4] abbreviates: dose: 400.0 mg/kg/injection, schedule: Q04DX003 (ip), vehicle: saline with Tween-80.
The mark [5] stands for this setting: dose: 50.0 mg/kg/injection, schedule: Q01DX009 (ip), vehicle: saline with Tween-80.
The mark [6] stands for this setting: dose: 200.0 mg/kg/injection, schedule: Q01DX009 (ip), vehicle: saline with Tween-80.
[7] abbreviates: dose: 50.0 mg/kg/injection, schedule: Q01DX009 (ip), vehicle: saline.
Where [8] appears, read: dose: 200.0 mg/kg/injection, schedule: Q04DX003 (ip), vehicle: saline.

The list does not hold the whole screen: it gathers tests that were run many times, whatever their T/C, doses with no T/C, and many T/C values between a quarter and a half above the control. Further doses and runs are listed elsewhere. T/C: endpoint of the treated group in % of that of the vehicle group. Some entries give survivors of the animals treated and no T/C: the source files T/C as zero there, which appears to mark a toxic dose or a test without result, not a measured value. Some doses without a T/C left all or most animals alive at the check, yet need not have been tolerated: survival well below the control is almost never listed, so the zero probably covers shortened survival too. Counts of survivors are from the toxicity check (mostly the fifth day) where no day follows; animals may have died later. Schedules are NCI's codes, read here as Q, the interval in days (D) or hours (H), X, the number of doses. Some entries hold several experiments; the values are given in rising order. For survival time, the PubChem record calls one and a half times the control and up active, and a quarter to a half above the control has no call in these data; cut-offs in other NCI protocols can differ. Some T/C values carry the count of animals alive at the toxicity check (mostly the fifth day); without a count, all were alive then.

As for `Cc1ccc(C2(C#N)CCCCC2)cc1`, the T/C under setting [1] is 125 % of control.
For the compound `C/C(=C\Cl)CO`, the survivor count (dose: 335.0 mg/kg/injection, schedule: Q01DX009 (ip), vehicle: alcohol) was 2 of 6.
Regarding `O=S(=O)(NC(=S)Nc1ccc(Cl)cc1)c1ccccc1`, the survivor count under setting [2] is on record as 6 of 6.
As for `CN(C)CCC(=O)C(=Cc1ccc(Cl)c(Cl)c1)C(=O)CCN(C)C`, for the setting “dose: 200.0 mg/kg/injection, schedule: Q01DX005 (ip), vehicle: saline”, the survivor count is given as 3 of 5.
On to `CC(=O)N(C)c1ccc(/C=C2\C=Cc3ccccc32)cc1`, for which the survivor count is given as 3 of 6 under setting [3] and 6 of 6 under setting [4].
In the case of `c1ccc(C2CN3CCSC3=N2)cc1` (stereo not drawn), the survivor count was 0 of 6 under setting [5], 0 of 6 under setting [1], 0 of 6 under setting [6] and 0 of 6 under setting [3].
For `COc1cc2ccc3c4cc5c(cc4cnc3c2cc1OC)OCO5`, the survivor count runs as follows: (dose: 3.12 mg/kg/injection, schedule: Q01DX009 (ip), vehicle: saline with Tween-80) 6 of 6; (dose: 6.25 mg/kg/injection, schedule: Q01DX009 (ip), vehicle: saline with Tween-80) 5 of 6; (dose: 100.0 mg/kg/injection, schedule: Q04DX003 (ip), vehicle: saline with Tween-80) 6 of 6; (dose: 200.0 mg/kg/injection, schedule: Q04DX003 (ip), vehicle: saline with Tween-80) 6 of 6.
Turning to `O=C(NCCN1CC1)C(=O)NCCN1CC1`, the survivor count is, setting by setting: (dose: 12.5 mg/kg/injection, schedule: Q04DX003 (ip), vehicle: saline with Tween-80) 6 of 6; (dose: 25.0 mg/kg/injection, schedule: Q04DX003 (ip), vehicle: saline with Tween-80) 2 of 6.
As for `N=c1ccc2nc3ccc(N)cc3sc-2c1`, the T/C is 140 % of control (dose: 25.0 mg/kg/injection, schedule: Q01DX009 (ip), vehicle: saline); 125 % of control under setting [7]; 131 % of control (dose: 100.0 mg/kg/injection, schedule: Q04DX003 (ip), vehicle: saline). The survivor count by setting is: (dose: 100.0 mg/kg/injection, schedule: Q01DX009 (ip), vehicle: saline) 4 of 6; under setting [8], 6 of 6.
`CCCCCCCCCCCC(=O)CCC`: the survivor count (dose: 100.0 mg/kg/injection, schedule: Q04DX003 (ip), vehicle: other) is recorded as 6 of 6.
On to `COc1cccc2c1C(=O)c1c(O)c3c(c(O)c1C2=O)CC(O)(/C(C)=N/NC(=O)CCCCCCCCC(=O)N/N=C(\C)C1(O)Cc2c(O)c4c(c(O)c2C(OC2CC(N)C(O)C(C)O2)C1)C(=O)c1c(OC)cccc1C4=O)CC3OC1CC(N)C(O)C(C)O1` (stereo not drawn), for which the T/C (dose: 12.5 mg/kg/injection, schedule: Q01DX009 (ip), vehicle: water) was 126 % of control. Further, the survivor count (dose: 50.0 mg/kg/injection, schedule: Q01DX009 (ip), vehicle: water) is 2 of 3.
In the case of `CN1CCC(C(c2ccccc2)c2ccccc2)C1` (stereo not drawn), the survivor count reads like this: (dose: 100.0 mg/kg/injection, schedule: Q01DX009 (ip), vehicle: Klucel (hydroxypropylcellulose) (HPC)) 3 of 6; under setting [2], 0 of 6.
As to `[O-][n+]1c(-c2ccccc2)cn2ccccc21`, the survivor count (dose: 400.0 mg/kg/injection, schedule: Q01DX001 (ip), vehicle: saline with Tween-80) is given as 0 of 6.
For `COc1ccc(CC2c3cc(OC)c(OC)cc3CCN2C)cc1OC` (stereo not drawn), the survivor count (dose: 12.5 mg/kg/injection, schedule: Q01DX005 (ip), vehicle: saline with Tween-80) was 6 of 6; the survivor count (dose: 25.0 mg/kg/injection, schedule: Q01DX005 (ip), vehicle: saline with Tween-80) is on record as 5 of 6; the survivor count (dose: 50.0 mg/kg/injection, schedule: Q01DX005 (ip), vehicle: saline with Tween-80) is given as 4 of 6; the survivor count (dose: 100.0 mg/kg/injection, schedule: Q01DX005 (ip), vehicle: saline with Tween-80) was 0 of 6; the survivor count (dose: 200.0 mg/kg/injection, schedule: Q01DX005 (ip), vehicle: saline with Tween-80) was 0 of 6.
Regarding `c1ccc2c(NCCCCCCNc3c4ccccc4nc4ccccc34)c3ccccc3nc2c1`, the survivor count reads like this: (dose: 10.0 mg/kg/injection, schedule: Q01DX009 (ip), vehicle: lactic acid) 2 of 6; (dose: 20.0 mg/kg/injection, schedule: Q01DX009 (ip), vehicle: lactic acid) 4 of 6.
As to `COC(=O)CCCCCCCCC(C)c1ccccc1` (stereo not drawn), the T/C reads like this: under setting [1], 125 % of control; under setting [6], 130 % of control; under setting [3], 130 % of control.
Turning to `CNC(CNC(CO)CC(C)C)Cc1ccc(OCc2ccccc2)cc1` (stereo not drawn), the survivor count by setting is: under setting [7], 1 of 6; (dose: 75.0 mg/kg/injection, schedule: Q01DX009 (ip), vehicle: saline) 0 of 6.
In the case of `CCCCCCCCCCCCSSC(=S)OC(C)C`, the T/C (dose: 200.0 mg/kg/injection, schedule: Q01DX009 (ip), vehicle: other) is 128 % of control.
For the compound `CC1CCC2(C(=O)O)CCC3(C)C(=CCC4C5(C)CC(O)C(O)C(C)(C(=O)O)C5CCC43C)C2C1(C)O` (stereo not drawn), under “dose: 50.0 mg/kg/injection, schedule: Q01DX001 (ip), vehicle: saline with Tween-80”, the T/C was 131 % of control.
With `Nc1ccc2cc(Cl)ccc2c1`, the T/C (dose: 25.0 mg/kg/injection, schedule: Q01DX009 (ip), vehicle: saline with Tween-80) was 136 % of control and the T/C under setting [5] was 131 % of control.
In the case of `Cc1cc(NCCCN(C)C)c2ccc3c(ccc4c(NCCCN(C)C)cc(C)nc43)c2n1`, the T/C under setting [5] is 125 % of control. The survivor count runs as follows: under setting [1], 0 of 6; under setting [6], 0 of 6.
`O=NN(CCF)C(=O)NC1CCC(NC(=O)N(CCF)N=O)CC1` (stereo not drawn): the survivor count runs as follows: (dose: 200.0 mg/kg/injection, schedule: Q04DX003 (ip), vehicle: alcohol) 4 of 6; (dose: 300.0 mg/kg/injection, schedule: Q04DX003 (ip), vehicle: alcohol) 0 of 6; under setting [4], 0 of 6.
Take `Nc1cc(Cl)c2[nH]cnc2n1`: the T/C is, setting by setting: (dose: 100.0 mg/kg/injection, schedule: Q01DX005 (ip), vehicle: distilled water + Tween-80) 125 % of control; (dose: 200.0 mg/kg/injection, schedule: Q01DX005 (ip), vehicle: distilled water + Tween-80) 133 % of control [4 of 6 alive]. Further, the survivor count (dose: 400.0 mg/kg/injection, schedule: Q01DX005 (ip), vehicle: distilled water + Tween-80) is 2 of 6.
Turning to `O[C@@H]1CCCC[C@@H]1n1cnc2c(=S)nc[nH]c21`, the survivor count under setting [3] was 6 of 6.
For `CC(C)CC(CC(C)C)NCC(C)OC(=O)c1ccc([N+](=O)[O-])cc1` (stereo not drawn), the survivor count (dose: 400.0 mg/kg/injection, schedule: Q01DX009 (ip), vehicle: water) is 3 of 6.
Regarding `O=C(CCCCN1CCc2[nH]c3ccc(F)cc3c2C1)c1ccc(F)cc1`, the survivor count (dose: 400.0 mg/kg/injection, schedule: Q01DX001 (ip), vehicle: Klucel (hydroxypropylcellulose) (HPC)) is 0 of 6.
`COc1cc(Cc2nccc3cc(OC)c(OC)cc23)c(C(C)=O)c(OC)c1`: the T/C is 131 and 140 % of control (dose: 5.0 mg/kg/injection, schedule: Q01DX009 (ip), vehicle: saline); 136 % of control (dose: 10.0 mg/kg/injection, schedule: Q01DX009 (ip), vehicle: saline); 145 % of control (dose: 20.0 mg/kg/injection, schedule: Q01DX009 (ip), vehicle: saline); 148 % of control (dose: 50.0 mg/kg/injection, schedule: Q04DX003 (ip), vehicle: saline); 127 % of control [5 of 6 alive] under setting [8]. Further, the survivor count runs as follows: (dose: 40.0 mg/kg/injection, schedule: Q01DX009 (ip), vehicle: saline) 6 of 6; (dose: 160.0 mg/kg/injection, schedule: Q01DX009 (ip), vehicle: saline) 4 of 6 and 5 of 6; (dose: 400.0 mg/kg/injection, schedule: Q04DX003 (ip), vehicle: saline) 4 of 6.
